# Test results from PubChem BioAssay AID624297 (National Center for Advancing Translational Sciences (NCATS), 2012).
# About 6,200 (1.8%) of roughly 340,000 compounds were called active. Inconclusive results, whose numbers are uncertain, are shown with a selection of clear calls. Calls follow the shape of the dose curve; as a rule, active = well fitted activation curve with a large enough effect; inconclusive = small, poorly fitted or top-dose-only effect; inactive = no such curve, though single readings can be large or run the other way. Potencies beside an inconclusive call are fits to weak or partial responses and may not hold up.
# Assay: A quantitative high throughput screen for small molecules that induce DNA re-replication in SW480 colon adenocarcinoma cells. Also: nearly all actives have a fitted effect of over 55% in size. As to re-replication activation: % of control where 0% means no effect.
# Conditions: Hoechst DNA content imaging, 48 h; re-replication activation: at 46.1 µM (top of the series)
# In short: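 Quantitative HTS format with DMSO vehicle controls; 48 hr drug incubation at 37 C, then 40 min Hoechst staining and scanning imager measurement at 405 nm excitation.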
# Potency is read from the fitted curve at half-maximal effect.
SMILES,Potency,re-replication activation
COc1cccc(N(C(C)=O)C2=NCCCS2)c1,"inconclusive: 0.116 µM [activator, full curve, poor fit]",
CCN(CC)c1ccc(/C=C2/C(=O)NC(=O)N(Cc3ccco3)C2=O)cc1,inactive,
CCOP(=O)(Cc1ccc(C(=O)CC)o1)OCC,"inconclusive: 0.326 µM [activator, partial curve, poor fit]",
CCCCN1C(=O)NC(=O)C2(Cc3c(nc4c(C)cccn4c3=O)N3CCc4ccccc4C32)C1=O (stereo unspecified),"inconclusive: 32.6 µM [activator, partial curve, poor fit]",
O=C(COc1ccccc1)N1CCN(CCN2C(=O)c3cccc4cccc(c34)C2=O)CC1,inactive,
C[C@H]1CCC[C@@H](O)CCC/C=C/c2cc(O)cc(O)c2C(=O)O1,"inconclusive: 4.61 µM [activator, full curve, poor fit]",
Cc1ncsc1CCCl,inactive,
ClCCN(CCCl)c1ccc(-n2cnc3c(Cl)ncnc32)cc1,active: 8.2 µM,
Cc1ccccc1-n1c(O)c(C=Nc2ccc(N(C)C)cc2)c(=O)[nH]c1=O,"inconclusive: 3.66 µM [activator, partial curve]",
CN1CC=C2C(C#N)=C(N)C(C#N)(C#N)C(c3ccncc3)C2C1 (stereo unspecified),"inconclusive: 0.651 µM [activator, full curve, poor fit]",
NC(=O)C1(N2CCCCC2)CCN(Cc2ccccc2)CC1,inactive,
CCCCCCC(C)(C)c1ccc([C@@H]2C[C@H](O)CC[C@H]2CCCO)c(O)c1,inactive,
CCCCN(Cc1ccccc1)C1CCN(CCc2ccccc2)CC1,"inconclusive: 29.1 µM [activator, single point]",
CCc1ccc(CN2CCN(Cc3cc(Br)ccc3O)CC2)cc1,"inconclusive: 29.1 µM [activator, single point]",
CC1CN(C)C(C)(C)CC1(O)c1ccccc1 (stereo unspecified),"inconclusive: 25.9 µM [activator, single point]",
NC(=O)c1c(NC(=O)c2ccc(S(=O)(=O)N(CCCl)CCCl)cc2)sc2c1CCCCC2,"inconclusive: 1.64 µM [activator, full curve, poor fit]",
O=c1[nH]c(=O)n(CCc2ccc(F)cc2)c(O)c1/C=N/N1CCCCC1,"inconclusive: 29.1 µM [activator, single point]",
COc1ccc(CCn2c(O)c(C=Nc3ccc(NC(C)=O)cc3)c(=O)[nH]c2=O)cc1OC,"inconclusive: 18.4 µM [activator, single point]",
O=C1CC23c4ccccc4N4C(=O)CC5OCC=C6CN1C2CC6C5C43 (stereo unspecified),inactive,
O=[N+]([O-])[N-][n+]1cnn(Cc2ccc(Cl)cc2)c1,"inconclusive: 32.6 µM [activator, partial curve, poor fit]",
CC(C)(O)/C=C/C(=O)[C@](C)(O)C1[C@H](O)C[C@@]2(C)C3CC=C4C(C[C@H](O)[C@@H](O)C4(C)C)[C@]3(C)C(=O)C[C@]12C (stereo partly specified),"inconclusive: 0.092 µM [activator, full curve, poor fit]",
O=C1Nc2ccccc2/C1=C/c1cnc[nH]1,"inconclusive: 11.6 µM [activator, partial curve, poor fit]",

SMILES,Potency,re-replication activation
CCCC(=O)NC1=C(N2CC2)C(=O)C(NC(=O)CCC)=C(N2CC2)C1=O,active: 2.31 µM,
COC(=O)C(C)Oc1cc(C)cc2oc(=O)c3c(c12)CCC3 (stereo unspecified),"inconclusive: 0.58 µM [activator, partial curve, poor fit]",
C/C(=N\Nc1ccccc1)c1c(O)[nH]c(=O)[nH]c1=O,active: 20.6 µM,
Cc1cc(C)c(C(=O)CN2CCOCC2)c(C)c1,active: 9.2 µM,
CCN1CCN(C(=O)COc2ccc(S(=O)(=O)NC(C)C)cc2)CC1,inactive,
COc1ccc(/C=C2\SC(=O)N(CCn3cnnn3)C2=O)cc1,"inconclusive: 20.6 µM [activator, partial curve, poor fit]",
CN1Cc2cnnn2-c2ccccc2C1c1ccccc1 (stereo unspecified),,inactive: -8.13% [at 9.22 µM]
CC(C)(C)OC(=O)N(CCc1ccccc1)Cc1ccc(OCc2cccc(NC(=O)c3ccccc3)c2)cc1,"inconclusive: 25.9 µM [activator, partial curve, poor fit]",
CCC(=O)Nc1ccc(Cl)c(Cl)c1,inactive,
O=C1NC(=O)C(=Cc2ccc(N3CCOCC3)cc2)C(=O)N1,inactive,
O=c1c2ccccc2nc(/C=C/c2ccc3c(c2)OCO3)n1-c1ccccc1,"inconclusive: 23.1 µM [activator, partial curve, poor fit]",
Cc1nn(-c2nccs2)c2c1C(=O)CC(C)(C)C2Br (stereo unspecified),"inconclusive: 20.6 µM [activator, single point]",
Cc1ccc2c(c1)C1CN(C)CCC1N2C(=O)c1cccnc1Cl (stereo unspecified),inactive,
N#CC1=C(N)Oc2cc(O)ccc2C1c1ccc2c(c1)OCO2 (stereo unspecified),"inconclusive: 23.1 µM [activator, single point]",
Cn1c(O)c(/C=N/NC(=O)c2ccncc2)c(=O)[nH]c1=S,"inconclusive: 7.31 µM [activator, partial curve, poor fit]",
COc1ccc(/C=C/C(=O)NC(=S)N2C[C@H]3C[C@H](C2)c2cccc(=O)n2C3)cc1,inactive,
COc1ccc(C2(c3cccc(O)c3OC)CCN(C(C)=O)CC2)cc1O,inactive,
Nc1nonc1C(=O)N/N=C/c1ccc([N+](=O)[O-])o1,"inconclusive: 23.1 µM [activator, single point]",
CC(C)CCOP(=O)(c1ccc(N(C)C)cc1)C(O)c1ccc(Cl)cc1Cl (stereo unspecified),"inconclusive: 2.82 µM [activator, partial curve, poor fit]",
O=C(c1ccc2c(c1)ncn2C1CCCCCC1)N1CCC2(CC1)OCCO2,"inconclusive: 29.1 µM [activator, single point]",
Brc1ccc(-[n+]2c(-c3ccccc3)cc(-c3ccccc3)cc2-c2ccccc2)cc1,"inconclusive: 6.51 µM [activator, single point]",
CC1=CC2/C=C(\C)CCC(O)C(O)/C=C/C(=O)C23C(=O)NC(CC(C)C)C3C1C (stereo unspecified),active: 18.4 µM,

# Given tab-delimited: part of the list above.
SMILES	Potency	re-replication activation
NC(=O)C1(N2CCCCC2)CCN(Cc2ccccc2)CC1	inactive	
CCCCCCC(C)(C)c1ccc([C@@H]2C[C@H](O)CC[C@H]2CCCO)c(O)c1	inactive	
CCCCN(Cc1ccccc1)C1CCN(CCc2ccccc2)CC1	inconclusive: 29.1 µM [activator, single point]	
CCc1ccc(CN2CCN(Cc3cc(Br)ccc3O)CC2)cc1	inconclusive: 29.1 µM [activator, single point]	
CC1CN(C)C(C)(C)CC1(O)c1ccccc1 (stereo unspecified)	inconclusive: 25.9 µM [activator, single point]	
NC(=O)c1c(NC(=O)c2ccc(S(=O)(=O)N(CCCl)CCCl)cc2)sc2c1CCCCC2	inconclusive: 1.64 µM [activator, full curve, poor fit]	
O=c1[nH]c(=O)n(CCc2ccc(F)cc2)c(O)c1/C=N/N1CCCCC1	inconclusive: 29.1 µM [activator, single point]	
COc1ccc(CCn2c(O)c(C=Nc3ccc(NC(C)=O)cc3)c(=O)[nH]c2=O)cc1OC	inconclusive: 18.4 µM [activator, single point]	
O=C1CC23c4ccccc4N4C(=O)CC5OCC=C6CN1C2CC6C5C43 (stereo unspecified)	inactive	
O=[N+]([O-])[N-][n+]1cnn(Cc2ccc(Cl)cc2)c1	inconclusive: 32.6 µM [activator, partial curve, poor fit]	
CC(C)(O)/C=C/C(=O)[C@](C)(O)C1[C@H](O)C[C@@]2(C)C3CC=C4C(C[C@H](O)[C@@H](O)C4(C)C)[C@]3(C)C(=O)C[C@]12C (stereo partly specified)	inconclusive: 0.092 µM [activator, full curve, poor fit]	
O=C1Nc2ccccc2/C1=C/c1cnc[nH]1	inconclusive: 11.6 µM [activator, partial curve, poor fit]	
CCCC(=O)NC1=C(N2CC2)C(=O)C(NC(=O)CCC)=C(N2CC2)C1=O	active: 2.31 µM	
COC(=O)C(C)Oc1cc(C)cc2oc(=O)c3c(c12)CCC3 (stereo unspecified)	inconclusive: 0.58 µM [activator, partial curve, poor fit]	
C/C(=N\Nc1ccccc1)c1c(O)[nH]c(=O)[nH]c1=O	active: 20.6 µM	
Cc1cc(C)c(C(=O)CN2CCOCC2)c(C)c1	active: 9.2 µM	
CCN1CCN(C(=O)COc2ccc(S(=O)(=O)NC(C)C)cc2)CC1	inactive	
COc1ccc(/C=C2\SC(=O)N(CCn3cnnn3)C2=O)cc1	inconclusive: 20.6 µM [activator, partial curve, poor fit]	
CN1Cc2cnnn2-c2ccccc2C1c1ccccc1 (stereo unspecified)		inactive: -8.13% [at 9.22 µM]

# (further entries)

SMILES,Potency,re-replication activation
O=c1[nH]c(=O)n(-c2ccccc2)c(O)c1/C=C1/C(c2ccccc2)=Nc2ccccc21,"inconclusive: 2.31 µM [activator, full curve, poor fit]",
CCOC(=O)C1(c2ccccc2)CCN(CC(=O)Nc2ccc(C)cc2)CC1,"inconclusive: 0.0052 µM [activator, full curve, poor fit]",
c1ccc2c(c1)[IH]c1ccccc1-2,"inconclusive: 18.4 µM [activator, single point]",
C[N+]12CCC(CC1)C(C#N)(N1CCOCC1)C2 (stereo unspecified),"inconclusive: 2.91 µM [activator, partial curve, poor fit]",
CCOc1cc2c(cc1OCC)-n1cccc1C(c1ccc(OC)c(O)c1)NC2 (stereo unspecified),"inconclusive: 7.31 µM [activator, partial curve]",
O=C(Nc1ccccc1Cl)OC1CN2CCC1CC2 (stereo unspecified),"inconclusive: 29.1 µM [activator, partial curve, poor fit]",
CC(=O)OC1CCC2(C)C(CC(=O)C3C2CCC2(C)C(OC(C)=O)CCC32)C1 (stereo unspecified),inactive,
CN(C)CCNC(=O)c1cccn(Cc2cc(C(F)(F)F)cc(C(F)(F)F)c2)c1=O,"inconclusive: 0.0052 µM [activator, full curve, poor fit]",
COCCNC(=O)CN1C2CCC1CC(O)(c1cccnc1)C2 (stereo unspecified),"inconclusive: 0.0046 µM [activator, full curve, poor fit]",
Cc1c(C)n(O)c2ccc3nonc3c12,"inconclusive: 25.9 µM [activator, partial curve, poor fit]",
CC1=Nc2ccccc2/C1=C/c1c(O)[nH]c(=O)[nH]c1=O,inactive,
CC(=NC(C)c1ccccc1)c1c(O)[nH]c(=O)[nH]c1=O (stereo unspecified),"inconclusive: 20.6 µM [activator, partial curve, poor fit]",
O=C(CCCN1CCC2(CC1)C(=O)NCN2c1ccccc1)c1ccc(F)cc1,"inconclusive: 0.259 µM [activator, single point]",
CC(C)C[C@H]1C(=O)N2CCC[C@H]2[C@]2(O)O[C@](NC(=O)[C@@H]3C=C4c5cccc6[nH]cc(c56)C[C@H]4N(C)C3)(C(C)C)C(=O)N12,"inconclusive: 0.0651 µM [activator, partial curve, poor fit]",
CCOP(=O)(OCC)O/C(=C/Cl)c1ccc(Cl)cc1Cl,inactive,
COC(=O)C1=C(c2ccc(Cl)c(C(F)(F)F)c2)C[C@@H]2CC[C@H]1N2C(=O)N1CCC(O)(c2ccc(Cl)cc2)CC1,"inconclusive: 23.1 µM [activator, partial curve, poor fit]",
COc1cccc(OC)c1CN1CCCC(C(=O)c2cccc(Cl)c2)C1 (stereo unspecified),inactive,
O=[N+]([O-])c1ccc(Cl)c([N+](=O)[O-])c1,"inconclusive: 23.1 µM [activator, single point]",
CC(C(=O)c1c[nH]c2ccccc12)N1CCOCC1 (stereo unspecified),"inconclusive: 2.06 µM [activator, partial curve, poor fit]",
CC1=C(N2CC2)C(=O)C(CO)=C(N2CC2)C1=O,"inconclusive: 0.0073 µM [activator, full curve, poor fit]",
Cc1nc2ccccc2c(=O)n1-c1ccc(Br)cc1[N+](=O)[O-],"inconclusive: 32.6 µM [activator, partial curve, poor fit]",
CNC(=O)Oc1ccc(-c2cn3cc(Cl)ccc3n2)cc1,inactive,
